No constants are given. Whether binding was seen depends on the method and setting. Binding seen in cells or lysates may run through a third protein. A result given as binding can be weak or reduced; the word gives no strength.

The text below walks through data of article PMC8547962.

Assay [1] concerns the target P. falciparum Isd11 with C-terminal His6 tag expressed in E. coli (P. falciparum) (UniProt Q8IEK7). Put plainly: pull-down + SEC; clarified lysate of E. coli coexpressing ∆2–50 mACP-HA2 and His-tagged Isd11; Ni-NTA pulldown of Isd11, imidazole eluate run over an S-100 size-exclusion column; Coomassie-stained SDS-PAGE and tandem MS. A general note: SEC sorts molecules by how far they enter the pores of the column.

Assay [2] has the same target. Kind of assay: pull-down; Ni-NTA pulldown of Isd11-His6 from lysates of E. coli coexpressing ∆2–50 mACP-HA2 (WT or F113A); western blot with anti-HA and anti-His6. On the technique in general: Immunoblotting shows a protein as a band on a membrane.

B1: Truncated (∆2–50) P. falciparum mACP-HA2 expressed in E. coli (domain or fragment, UniProt Q8I0V5 51-157)
chain: LSAQKNSAFFSTEKSQDLSSLSKEQIEEKILTVLKKYLPPDVEIKYDEELEKYNTKDNRAWDFLDTVEFLIDIESEFNITIPDETADNIKTVQEVIDYIIQLNIKKT
In the case of B1, the binding entry in assay [1] and in assay [2] was “binds” throughout.
